Laboratory results: patent publication US7371829B2, “Haptens, immunogens, antibodies and conjugates to ketamine and its metabolites” (Randox Laboratories Limited, priority 2002, dated 2008)

Tested on: antiserum raised to immunogen C (hapten C-BSA), IgG fraction
Test: Competitive ELISA microtiter plate assay for ketamine and norketamine (conjugate A, hapten A-HRP, as detection reagent)
Assay type: binding, sheep
Experimental: An aqueous solution of the immunogen prepared in Example 10 was formulated with Freund's Complete Adjuvant (FCA) to form an emulsion consisting of 4 mg/ml immunogen in 50% (v/v) FCA. Three sheep were immunised with this emulsion (1° immunisation), 0.25 ml being subcutaneously injected at each of four sites in the flank of each animal. The next immunisation (boost 1) contained 2 mg/ml immunogen and subsequent immunizations (boosts 2 to 11) contained 1 mg/ml immunogen. All boosts were emulsified in 50% (v/v) Freund's Incomplete Adjuvant (FIA) and were administered in the same manner as the 1° immunisation, at monthly intervals for 1 year. Blood sampling took place 7 to 14 days after each boost. Each sample was processed to produce antiserum, which was further purified by caprylic acid and ammonium sulfate precipitation to yield an immunoglobulin G (IgG) fraction. The IgG fraction was evaluated by competitive ELISA microtiter plate assay, as described in Example 16 below.
The wells of an enhanced binding 96 well polystyrene microtiter plate were coated with the IgG fraction of the antiserum raised to immunogen C (hapten C-BSA) (Example 10), diluted in 10 mM Tris, pH 8.5 (125 μl/well). The appropriate antibody coating dilution was determined using standard ELISA checkerboard techniques. The plate was incubated for 2 hours at 37° C., washed 4 times with Tris buffered saline containing Tween 20 (TBST) and tapped dry. Standard solutions of ketamine and norketamine were prepared in TBST at 0, 0.1, 0.5, 1, 5, 25, 100 and 500 ng/ml and 50 μl of each was added to the appropriate wells (FIG. 4). 75 μl of conjugate A (hapten A-HRP) (Example 11), diluted in Tris buffer (pH 7.2) containing EDTA, D-mannitol, sucrose, thimerosal and BSA, was added to each of the wells, as shown in FIG. 4. The appropriate dilution of conjugate was also determined using standard ELISA checkerboard techniques. The plate was incubated at 37° C. for 2 hours. Excess unbound conjugate was removed by washing 6 times over a 10 minute period with TBST.
125 μl of tetramethylbenzidine (TMB) substrate solution was added to each well of the plate that was then incubated for 15 to 20 minutes in the dark at room temperature. The reaction was terminated by addition of 125 μl 0.2M H2SO4 to each well. The absorbance was then measured at 450 nm using a microtiter plate reader.
In order to determine the specificity of the competitive ELISA for ketamine and norketamine, standard solutions were prepared in TBST at 0, 0.1, 0.5, 1, 5, 25, 100 and 500 ng/ml. Employing each series of standards in the ketamine competitive ELISA, calibration curves were generated and these were used to determine the cross-reactivity of the immunoassay with these substances. The results of this study are presented in Table 2, cross-reactivity of potential cross-reactants phencyclidine and dextromethorphan being calculated according to the following formula: % CR=IC50, Ketamine/IC50, CR×100
Where %CR is the percentage cross-reactivity, IC50, Ketamine is the concentration of ketamine that causes 50% displacement of signal and IC50, CR is the concentration of potential cross-reactant that causes 50% displacement of signal.

[1] = standard concentration 0.1 ng/ml
[2] = standard concentration 0.5 ng/ml
[3] = standard concentration 25 ng/ml
[4] = standard concentration 100 ng/ml
[5] = standard concentration 500 ng/ml

SMILES	A450 (absorbance at 450 nm) [1]	A450 (absorbance at 450 nm) [2]	A450 (absorbance at 450 nm) (standard concentration 1 ng/ml)	A450 (absorbance at 450 nm) (standard concentration 5 ng/ml)	A450 (absorbance at 450 nm) [3]	A450 (absorbance at 450 nm) [4]	A450 (absorbance at 450 nm) [5]
CNC1(c2ccccc2Cl)CCCCC1=O (racemic) [Ketamine, (±)-2-(o-chlorophenyl)-2-(methylamino) cyclohexanone]	2.02	1.817	1.489	0.935	0.548	0.404	0.254
NC1(c2ccccc2Cl)CCCCC1=O (centres unmarked) [Norketamine, [2-amino-2-(o-chlorophenyl)]cyclohexanone]	1.843	1.416	1.368	0.961	0.482	0.320	0.222
